Among all 52,000 sequences or so, about 210 (0.4%) were called active.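 Rule for the calls: active = gene whose silencing raises cell survival under the drug, median off-target-corrected z-score across its silencing RNAs 2 or more; inactive = the rest.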 The list shows a part of the results.

The experiment can be described thus: Resistance to Poly (ADP-Ribose) Polymerase inhibitor: Gene Identification via Genome-wide siRNA Screen. The note with it: mouse BRCA2 R2336H ES cells, olaparib, CellTiter-Glo viability; hits give high values. The gist of the method:
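Mouse BRCA2 R2336H ES cells were reverse-transfected with siRNA (20 nM final), treated at 48 h with 500 nM olaparib, and read by CellTiter-Glo after 72 h. Scores: MAD-based z per siRNA, median per gene, seed off-target correction.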
For orientation: ATP-based viability assays read luminescence as a measure of living cells.
On to GCUACGUUAAGUGAAGAUATT against Acad9, for which the z-score was inactive: -0.331.
With GCGACACCCUGAUCAUGAATT against Ascl3 the figure was inactive: -0.0816; with GGUGUUUGAUCUUUUAAAGTT against BC025462, inactive: -0.576; with GGUUAUUAUGUGUUUGACUTT against Sca7, inactive: -0.168.
The figure for “GGGACCACAAGUUUAGAACTT against 2410017P07Rik” is inactive: 0.422; for GGAGCUAGCUGAGUUCAUGTT against Arhgap4 it is inactive: -1.13; for GCCGAACUAUUGGCUCAAGTT against Gucy2e it is inactive: -2.28.
With GGCCAUCCAGUGCCUACAATT against BC022641 the figure was inactive: -0.939; with GGUUGUCUGUCUUUUCCGGTT against Mta2, inactive: 1.64.
CGACCUUUGAGACUGAAGATT against 8-Sep: the z-score was inactive: -0.0158.
The figure for GGUUCAAAUACAUUGCCAUTT against Rabif is inactive: 0.135; for GCACUGAGCUGUGAAAACATT against Zfp98 it is inactive: -2.06.
The figure for GGACUCCUAAUGAAUAAUCTT against BC052883 is inactive: 0.247.
The figure for GCAACUUGGCUACAAUUACTT against Dct is inactive: 0.693; for “GGUGAUCAUCAGUGAUAAGTT against 1700016F23Rik” it is inactive: -0.251; for GGAAAAGAUGGCUGUUGUCTT against Banf1 it is inactive: -1.07.
As for “GGACCAGCUCAUCACCAAGTT against 5133400G04Rik”, the z-score is inactive: -1.7.
On to CCAAGGUAGAGGUGGCGAATT against Prkcabp, for which the z-score was inactive: 0.682.
For CCGCUGUUUUCAACUGUGCTT against Asb10, the z-score is inactive: 1.23.
The figure for “GGGUCUUAAUGGGAUGGCUTT against 6030446N20Rik” is inactive: -0.0309; for GGGACAGCAACAUUGUCAATT against Inhbc it is inactive: 0.779.
With AAAACCACUCUGUUAUCACTT against Olfr774, the z-score was inactive: 0.723.
The figure for GGGCUCCGAUGAAGAGAAUTT against Ctrb1 is inactive: -1.71; for “GGAAAAUUAGUAACCUCCCTT against 1110013L07Rik” it is inactive: 0.281; for GCAUGUUUACGUUCCUGACTT against Slc2a12 it is inactive: 0.28.
On to GGAUGUCCACAACAAGUGATT against Glra1, for which the z-score is inactive: 0.0139.
The figure for CGAAGGAGCAACGGUAAAATT against Fkbp5 is inactive: 1.09.
Take GGAUCAGCUGUCAUCUGUGTT against Ssb4: the z-score is inactive: 0.432.
Consider CCCUAAUAUCACAUGGUGGTT against Cd79a, for which the z-score is inactive: 0.376.
The figure for “GCACGAAGGUCGUUAUUAUTT against 5031439A09Rik” is inactive: 3.65; for GGCAAUCAGGACGUAAAGUTT against Kist it is inactive: -0.373.
For CCAGUGAACUUUAUGGACUTT against Gm111, the z-score is inactive: 0.0129.
With CGUAGGACACGUGAAUUGUTT against F7 the figure was inactive: 1.43; with GCAUGGCUAUUUAACAUUCTT against Rpl7l1, inactive: -1.02; with GCAGACAGAGUUUUAACGUTT against Fancl, inactive: 1.1.
With GGAUACAAUGUCCGAGUGCTT against Tie1 the figure was inactive: 0.681; with “GGCUCUAAAACUGUCAGACTT against 1700010M22Rik”, inactive: 0.374.
With “GGCUCAAAGGAGGGUAGAGTT against 9230106L18Rik” the figure was inactive: -0.772.
In the case of GGAAAUGAUCACAGCUGGGTT against Ccl20, the z-score was inactive: -0.0712.
The figure for CCACUCUAAAGAGUUGUACTT against Surf1 is inactive: 0.448; for CCUGCACUACUGGAUUGGATT against Vill it is inactive: 0.37.
With GCCAAGAUUGUCAAAGAUCTT against Pgk1 the figure was inactive: -0.242; with CGAUUCAAGGUAACAUAGATT against Esrrg, inactive: 1.7; with GCGCAAGUUGUGCAGAACUTT against Asb5, inactive: -2.37.
The figure for “GGGAUUGAAUCAUAGUUAGTT against 4933417L02Rik” is inactive: 0.0448.
With GCGAAACCGUGUUUCUCUATT against Skil, the z-score was inactive: 0.0665.
With CCCAGCUCUACUUUUUCUCTT against Olfr971 the figure was inactive: 0.893.
The figure for GCACAGCCUGGUCAAAAACTT against S100a16 is inactive: -0.488; for GCCAAGAGGUUUUAUGGUUTT against Trim38 it is inactive: -0.573; for GGAAGAUGUUACUUCAAAGTT against Anln it is inactive: 0.0573.
“GCAAACGCAGCAGAAUAGCTT against 2900091E11Rik”: the z-score is inactive: 0.534.
The figure for CCGCUUCAAUGUCUACUGCTT against Bcan is inactive: -1.09; for GGAACAAAGGAUCUGUCUGTT against Sec23a it is inactive: -0.591; for CGCUCCUUUUUGUUAAUGCTT against Psmf1 it is inactive: -0.919.
On to CCACUGUUACCAUUAUAAUTT against Pramel5, for which the z-score is inactive: 0.469.
Consider AGAGACUAGGGAUGCAUCUTT against Olfr462, for which the z-score was inactive: 2.89.
With CCGCCCUGAUUAUUGCCAUTT against Edar the figure was inactive: 0.83; with GGGACACCGUCAAUCUUUATT against Frzb, inactive: 0.72; with GCAUCUUGUUUUAAUGACUTT against Car5b, inactive: 0.926.
Regarding GCCUCAAUUGUUUACUUAUTT against Edn2, the z-score is inactive: 0.0991.
Consider GCAUUACUAAUCAAAGUGGTT against Abcb1b, for which the z-score is inactive: 0.168.
The figure for “GCAGGAAGUAAAAUCUCUUTT against 1300007B12Rik” is inactive: -1.3.
On to GGCAAAAGAAUCGUUCUCATT against Ppat, for which the z-score was inactive: -1.
Regarding “GGUUCUGACAGACAAAAUUTT against 3300001P08Rik”, the z-score was inactive: -3.2.
On to “CCAUUGUUUUCCAGUUCCATT against A930013B10Rik”, for which the z-score is inactive: -2.04.
With GGAAGAGACCAAAGUAUAATT against Map2k7 the figure was inactive: -2.03.
For the sequence CGUACAUCCUAAAAGUGGGTT against Pcdhac1, the z-score is inactive: 0.075.
On to “GCAUGUCAGACAAUAAAGUTT against D15Bwg0669e”, for which the z-score is inactive: 0.837.
The figure for GGGAAAAAUGGUCAGAUUATT against AI427652 is inactive: -0.0496.
With GGAAUCUGUUGUUUCUCUUTT against Grcc3f the figure was inactive: 0.476; with GCGUGUCUUGCUCUUUUGATT against Usp22, inactive: 2.27.
As to CCAGAUCUCAAAAAUCCAUTT against Rage, the z-score is inactive: 0.261.
The figure for GCUCCAACACCCUGUGAAUTT against Tessp2 is inactive: -1.93; for GAGAUGGACAAUCUCAUGGTT against Pcp2 it is inactive: 3.87; for GGAGAGUUACGACGUAUUCTT against Ckb it is inactive: 0.48.
In the case of GCUAUGUUGUUAAAACGAATT against Amotl2, the z-score is inactive: 0.313.
With GGUCAAAAAAUAUUGAUGCTT against Itgav the figure was inactive: 0.113; with GGCACGUACCAUUGAGAUATT against Ina, inactive: 0.318; with GAAUCCUUGUUCUAUGCUCTT against V1rd16, inactive: 0.711.
Take GGGUCAUCAGAGCUGACAGTT against BC031407: the z-score was inactive: 0.592.
As for “GGAUCUGUGAGAAUCAUAGTT against 9630005B12Rik”, the z-score was inactive: 0.0946.
With GGAGAUUAACAACAUGAAGTT against Brap the figure was inactive: -0.183; with “GGGAACAGCAUCUCUGUCATT against E130115E03Rik”, inactive: -0.944; with GGUACUGAAUUCAACAAACTT against BC004701, inactive: 0.117.
The figure for GGGAGAGAAUGUGUUUGGUTT against Rps14 is inactive: -3.15.
Consider GGACUGAGAUCAAAUUCUCTT against Ptges2, for which the z-score was inactive: 0.596.
With “GCCACUGUUGUGUAAACUATT against 5830461H18Rik” the figure was inactive: -0.679; with CGGUGUUUUGGUUAAAUGUTT against Slamf6, inactive: 0.853.
The figure for GGAAAGCAAGUGCACAAAUTT against Slco1a4 is inactive: -0.422; for UUCGUUCAAAUGAAGCUUCTT against AI505652 it is inactive: -0.697.
The figure for GGCAAAUUUGGAUGUGUGUTT against Dsg3 is inactive: 2.9; for “GCUUUGUGGCUCAAGCCAATT against 2810451A06Rik” it is inactive: 0.437.
GCCAAAUGGCUGUAUCUAUTT against Lgi2: the z-score was inactive: -0.388.
The figure for GGAGUGGCUCUGUUUGAACTT against Bsn is inactive: 0.214.
As for GGUUCCACUCUGAACUUAATT against Es1, the z-score was inactive: -0.0429.
In the case of “GGGAAUUCACACUGUCUGGTT against 0610011I04Rik”, the z-score is inactive: -1.01.
The figure for GGGUCUCUAUGGAAUCAAUTT against Ldh1 is inactive: 0.295; for GGUCAUCGUGUUUGGUUUCTT against BC057552 it is inactive: 0.0965.
The figure for GGAUGCGGAUCAGAACUACTT against C1ql4 is inactive: -0.982; for “GCUGAUGUCUGAGGGUGUATT against 1700028O09Rik” it is inactive: 0.0462.
With GCGACACUGAAUUCUUUUATT against Ccng2 the figure was inactive: 2.31; with GGGACCAACUCCUAACAGATT against Csf2rb1, inactive: 2.11; with GACCUACUUUCCUCACUUUTT against Hba-a1, inactive: 0.205.
On to GGAAAAUUGUCCAUGUAAATT against Tex15, for which the z-score is inactive: -0.464.

Source of the values: PubChem BioAssay AID1347423 (Functional Genomics Laboratory (NCATS/FGL), 2020).
